# Some of the results follow.
# Protein sequences, listed by entry. Tags and fused reporters are not part of them.
# UniProt Q0JBA9, entry or part of it: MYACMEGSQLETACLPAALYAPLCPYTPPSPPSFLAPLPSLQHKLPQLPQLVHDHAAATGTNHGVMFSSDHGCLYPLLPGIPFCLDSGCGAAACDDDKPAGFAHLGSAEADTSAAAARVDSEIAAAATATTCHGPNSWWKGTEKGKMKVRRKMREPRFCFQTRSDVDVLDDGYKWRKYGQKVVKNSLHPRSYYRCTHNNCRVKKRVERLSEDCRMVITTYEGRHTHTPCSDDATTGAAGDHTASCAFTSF
# Target: OsWRKY34 (Oryza sativa, UniProt Q0JBA9 1-250)
# Assay: protein-binding microarray (RPBM); PBS, 2% BSA, 51.3 ng/ul salmon testes DNA, 50 uM zinc acetate, 200 nM TF, 25 C, 1 h; high values mean tight binding
# Conditions: protein: recombinant; tags: N-terminal polyhistidine and DsRed monomer fusion (pET32a); label: CyDye5-dUTP incorporated in the synthesized complementary strand; 3' TTTTT single-stranded linker to array surface; dsDNA, one strand shown
# In short: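 An Axon 4000B scanner gave the binding signal as per-feature fluorescence intensity in arbitrary units. This followed washing of a custom Agilent array that had been incubated for 1 h at 25 °C with 200 nM protein in PBS, 2% BSA, salmon testes DNA and 50 µM zinc acetate. The proteins were transcription factors fused at the N-terminus to polyhistidine and DsRed, expressed in E. coli BL21-CodonPlus and purified on Ni–NTA.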
row,Sequence,binding signal
1,CGTCACCGCCTCCTCCTCCTCCGCCGCCGTCGCCCTCGCGCGGAGTCACCTAGTGCAG,8970 fluorescence intensity (a.u.)
2,ATTTTATCACCTTTTTAGAGTCATTCTTTGACTGCTATGTCGGAGTCACCTAGTGCAG,9550 fluorescence intensity (a.u.)
3,GCTTCGTCACTGTCGCTATACTTGCCAATTCAAATGTCTTCGGAGTCACCTAGTGCAG,11500 fluorescence intensity (a.u.)
4,TGGAGTTCTTTATTGCTTAAGCTCGATCAGATTTCGTTTTCGGAGTCACCTAGTGCAG,10500 fluorescence intensity (a.u.)
5,CCTCCGTCGACCCCGCTCGCCCAGACCCGCTTACCGCCTTCGGAGTCACCTAGTGCAG,9040 fluorescence intensity (a.u.)
6,GCATCTCTATAAATACCCTTGCTATCCCACATTCCAAACTCGGAGTCACCTAGTGCAG,8810 fluorescence intensity (a.u.)
7,TATTACATTGATCAGTTTCCTTTTGAAGGTCCTTTCTCTTCGGAGTCACCTAGTGCAG,8920 fluorescence intensity (a.u.)
8,TTTTAACTCTAAACTATAACCTTTTTCTTTCTTTTCGTTACGGAGTCACCTAGTGCAG,8200 fluorescence intensity (a.u.)
9,AGACCTACCGATTGGTGCTGACATTGGTCGTTATTGCAAACGGAGTCACCTAGTGCAG,8740 fluorescence intensity (a.u.)
10,TTTTGGCTGACGTGGCGCTTACGTGGTTGGTTTGACTAGACGGAGTCACCTAGTGCAG,8510 fluorescence intensity (a.u.)
11,TCCGGTTGGCAAGTTTGTTGGATTAGGATTTTGATTCAAACGGAGTCACCTAGTGCAG,8710 fluorescence intensity (a.u.)
12,CTATATATTATCAAGTTTGACTGGTTGACTATGGTTGTGTCGGAGTCACCTAGTGCAG,10500 fluorescence intensity (a.u.)
13,ATTAATTCCTCGCGCCCCATCCATCCATTCCCCTGCCATGCGGAGTCACCTAGTGCAG,9080 fluorescence intensity (a.u.)
14,TCTCTTTCTCTCTCTTGGGCAATCTGTGGGCAGGGGCGGCCGGAGTCACCTAGTGCAG,12400 fluorescence intensity (a.u.)
15,CCTTGTTGGCTTGTCTTGTTTGTCCATGAAAATCTCATAGCGGAGTCACCTAGTGCAG,10100 fluorescence intensity (a.u.)
16,CGTTTGGCCAAGTATATGACGCCCTAACTTATAAGTTGACCGGAGTCACCTAGTGCAG,8420 fluorescence intensity (a.u.)
17,GTTGTTAATAGTGGGTTTTTTAGCGTTGTTAATTATAAATCGGAGTCACCTAGTGCAG,9830 fluorescence intensity (a.u.)
18,CCGCCCTTAGACAGGCCCCGCCTCCGCCTCCGCGCCCACCCGGAGTCACCTAGTGCAG,27800 fluorescence intensity (a.u.)
19,TTCTTACCTTTTTCGATTTCGTCGTTCACTGTTGTTAGTCCGGAGTCACCTAGTGCAG,10000 fluorescence intensity (a.u.)
20,CTTTCAATATTGCTTATTTTTAAATCCGAATTTCAGCTATCGGAGTCACCTAGTGCAG,9420 fluorescence intensity (a.u.)
21,CTCTCCTTTTCTTCTTCTCAGCGTCGCCGTCGTCTTCTTTCGGAGTCACCTAGTGCAG,10900 fluorescence intensity (a.u.)
22,TTTTCAACCTTATATTGTCATTGTCCGTCAACTTGGCTTGCGGAGTCACCTAGTGCAG,8970 fluorescence intensity (a.u.)
23,TTCCCACTAACCCCAATTCACTCATGTTGTAGTATCCGTACGGAGTCACCTAGTGCAG,12100 fluorescence intensity (a.u.)

# From no. 12 up to 13, as listed above:
row,Sequence,binding signal
12,CTATATATTATCAAGTTTGACTGGTTGACTATGGTTGTGTCGGAGTCACCTAGTGCAG,10500 fluorescence intensity (a.u.)
13,ATTAATTCCTCGCGCCCCATCCATCCATTCCCCTGCCATGCGGAGTCACCTAGTGCAG,9080 fluorescence intensity (a.u.)

# — publication PMC7819943, “Rice protein-binding microarrays: a tool to detect cis-acting elements near promoter regions in rice”
